Results published in publication PMC7202230.

Protein sequences, listed by entry. Tags and fused reporters are not part of them.
UniProt P60468: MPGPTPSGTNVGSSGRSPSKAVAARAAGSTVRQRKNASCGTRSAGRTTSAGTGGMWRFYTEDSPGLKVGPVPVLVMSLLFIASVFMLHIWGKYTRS

Target: purified recombinant Sec61β full-length, immobilised (UniProt P60468)
Assay: affinity purification with mass spectrometry; purified recombinant Sec61β covalently coupled to Ultralink Biosupport, pull-down from RRL, elution with Triton X-100, TCA precipitation, SDS-PAGE, in-gel tryptic digestion of the ~38 kDa band, LC-MS/MS; only the target purified

B1: rabbit SGTB (G1SX57), endogenous (protein, UniProt G1SX57 1-304)
chain: MSSIKHLVYAVIRFLREQSQMDAYTSDEQESLEVAIQCLETVFKISSEDTHLAVPQPLTEMFTNSFCKNDILPLSNSAPEDVGKADQLKDEGNNHMKEENYAAAVDCYTQAIELDPNNAVYYCNRAAAQSKLSHYTDAIKDCEKAIAIDSKYSKAYGRMGLALTAMNKFEEAVTSYQKALDLDPENDSYKSNLKIAEQKLREVSSPTGTGLSFDMASLINNPAFISMAASLMQNPQVQQLMSGMMTNAIGGPAAGVGGLTDLSSLIQAGQQFAQQIQQQNPELIEQLRNHIRSRSFSSSTEEHS
- binding: binds

These are yes or no findings as the source states them, for the method shown. Binding seen in cells or lysates may run through a third protein. Here binding means that the protein was enriched with, or labelled near, the bait; the list need not be complete.
